This assay addresses Connective tissue growth factor (CTGF) (human (endogenous in RA FLS)) (UniProt P29279). Nature of the assay: affinity purification with mass spectrometry; Co-IP with anti-CTGF mAb from RA FLS lysates (RIPA buffer), protein A agarose beads, SDS-PAGE, Nano-LC-MS/MS of gel pieces; IgG as control.

Sequences of proteins named here, by UniProt entry; tags and fusion partners are left off. Residues count along the entry.
UniProt P29279, residues 27-349: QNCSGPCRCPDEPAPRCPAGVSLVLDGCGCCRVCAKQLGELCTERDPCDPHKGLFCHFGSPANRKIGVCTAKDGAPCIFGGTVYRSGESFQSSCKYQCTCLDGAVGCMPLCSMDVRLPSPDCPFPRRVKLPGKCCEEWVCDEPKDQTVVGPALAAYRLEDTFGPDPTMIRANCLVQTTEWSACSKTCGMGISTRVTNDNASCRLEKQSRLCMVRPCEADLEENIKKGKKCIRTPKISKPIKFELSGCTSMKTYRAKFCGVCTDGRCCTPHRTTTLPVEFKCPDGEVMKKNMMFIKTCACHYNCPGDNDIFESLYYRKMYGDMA
UniProt P07355: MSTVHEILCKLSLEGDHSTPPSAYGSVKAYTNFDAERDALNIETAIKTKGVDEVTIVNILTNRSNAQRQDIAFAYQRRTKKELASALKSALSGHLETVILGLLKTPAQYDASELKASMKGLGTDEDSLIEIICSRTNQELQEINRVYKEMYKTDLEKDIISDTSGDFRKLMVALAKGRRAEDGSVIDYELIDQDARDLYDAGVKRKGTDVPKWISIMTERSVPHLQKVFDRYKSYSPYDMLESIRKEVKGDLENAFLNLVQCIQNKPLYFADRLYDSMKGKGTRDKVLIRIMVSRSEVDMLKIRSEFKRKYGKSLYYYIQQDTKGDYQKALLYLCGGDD

No constants are given. Whether binding was seen depends on the method and setting. In cells and extracts the contact can be indirect. A yes stands for co-enrichment or nearness to the bait. Other partners may have been found.

As for “Annexin A2 (ANXA2) (from UniProt P07355 1-339)”, the binding entry was “binds”.

For the origin of these results see PMC8547044.
